The series deals with GSK-3. The series is described as follows: Radioligand saturation binding assay with tritiated ligands in hippocampal membranes. As to conditions: tritiated ligand, hippocampus of SD rat brains. Further details: species or system Sprague–Dawley rat. How it is done: The pharmacology and physicochemical properties of compounds 13a–13e are depicted in Table . To evaluate binding affinities, saturation binding assays using tritiated ligands [^3H]13a, [^3H]13c, [^3H]13d, [^3H]13e (Scheme S1) were performed using the hippocampal tissue of Sprague–Dawley (SD) rat brains. As depicted in Table A, total binding (TB), nonspecific binding (NSB), and specific binding (SB) of the respective tritiated ligands were measured with increasing concentrations of the radioligands. The dissociation constant (Kd) and capacity (B max) of each radioligand were calculated to confirm their binding affinity.
For membrane preparation, hippocampal tissue from adult rats (Sprague–Dawley) was dissected out, weighed, and frozen in 0.32 M sucrose at −70 °C. On the experiment day, the tissue was thawed, homogenized in 50 mM Tris, 5 mM EDTA (pH 7.4) and then centrifuged at 48 000 xg for 15 min at +4 °C. The pellet was diluted in binding buffer (50 mM Tris, 4 mM MgCl2, 1 mM EDTA pH 7.4) to a final concentration of 2.5 mg w.w./mL. Saturation binding experiments were performed in duplicate, with each tube containing 1 mg w.w. in 0.5 mL binding buffer and 0.1 – 17 nM (11–12 concentrations) of radioligand. Nonspecific binding was measured by adding 10 μM AR-A014418. The assays were incubated for 2–3 h at room temperature and terminated by quick filtration using Whatman GF/B filters pretreated with 0.3% polyethylenimine on a Brandel cell harvester. Radioactivity was measured with a Packard Tri-Carb 2900TR liquid scintillation counter, and data were processed by nonlinear regression analyses using PRISM 4.03.

Our source for the Bmax values is publication PMC12260939, “Radiosynthesis and Evaluation of ^11C‑Labeled Imidazolyl Pyrimidine Derivatives for Positron Emission Tomography Imaging of Glycogen Synthase Kinase‑3” (ACS Pharmacology & Translational Science, 2025).

Compound `CC(=O)N1CCN(Cc2ccc(Nc3ncc(F)c(-c4cnc(C)n4C4CCOCC4)n3)cc2)CC1` [13e] displayed a Bmax of 83.4 fmol/mg.
Turning to `COCCN(C)C(=O)c1ccc(Nc2ncc(F)c(-c3cnc(C)n3C3CCOCC3)n2)cc1C` [13d], the Bmax turned out to be 68.0 fmol/mg.
Next, `Cc1ncc(-c2nc(Nc3ccc(C(=O)N4CCCCC4)c(Cl)c3)ncc2F)n1C1CCOCC1` [13a]: 64.5 fmol/mg; `Cc1cc(Nc2ncc(F)c(-c3cnc(C)n3C3CCOCC3)n2)ccc1C(=O)N(C)C` [13c]: 68.4 fmol/mg.
